These are yes or no findings as the source states them, for the method shown. Some entries that bind do so weakly or less than the wild type.
How the values were obtained:
[1] = target: bovine serum albumin (bovine) (UniProt P02769); assay: SPR: purified BSA12 captured on immobilised BSA, 17 rounds with regeneration at pH 2.0
[2] = target: bovine serum albumin (bovine) (UniProt P02769); assay: SPR (Biacore 3000): 80 nM purified BSA12 captured on immobilised BSA in flow cell 1, surface regenerated with 10 mM glycine/HCl pH 2.0 after each cycle

The chains behind the UniProt entries cited, without tags or fusion partners. Residues count along the entry.
UniProt P02769, residues 25-607: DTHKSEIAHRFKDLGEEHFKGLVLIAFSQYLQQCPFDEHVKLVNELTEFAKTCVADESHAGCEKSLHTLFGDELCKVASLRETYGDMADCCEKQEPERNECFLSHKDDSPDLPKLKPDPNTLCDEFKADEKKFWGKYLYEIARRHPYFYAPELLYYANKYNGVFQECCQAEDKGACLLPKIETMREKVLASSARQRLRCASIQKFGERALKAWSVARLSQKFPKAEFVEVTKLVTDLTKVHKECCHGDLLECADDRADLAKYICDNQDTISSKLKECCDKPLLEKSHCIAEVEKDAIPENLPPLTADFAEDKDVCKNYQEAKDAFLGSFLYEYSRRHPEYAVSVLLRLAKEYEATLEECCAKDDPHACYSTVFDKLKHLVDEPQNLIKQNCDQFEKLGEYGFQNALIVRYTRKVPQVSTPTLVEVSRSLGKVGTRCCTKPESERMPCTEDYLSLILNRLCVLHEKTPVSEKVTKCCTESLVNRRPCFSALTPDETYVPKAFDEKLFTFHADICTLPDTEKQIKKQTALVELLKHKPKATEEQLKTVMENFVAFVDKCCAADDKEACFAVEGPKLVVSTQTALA

B1: BSA12 (VHH)
VHH: QVKLEESGGGLVQVGDSLRLSCAASGRTFSNYTMAWFRQFPGKEREFVAVVSRGGGATDYADSVKGRFTISRDNAKNTMYLQMNSLKTEDTAVYYCAAGTDLSYYYSTKKWAYWGQGTQVTVSS
For B1, the binding [1] was “binds” and the binding [2] was “binds”.

From patent publication US20170122941A1
